Assay results: patent US5032680A (priority 1988, dated 1991)
At least one structure is not confirmed: it was looked up by name or label, or the drawing left a doubt.

System: Mouse transplantable tumour Sarcoma 180 cells
Test: Measurement of antitumour activity value (Sarcoma 180 subcutaneously transplanted, oral administration)
Type: in vivo, male ICR/JCL mice
Details: once a day for 9 consecutive days, tumour weight on day 12, Sarcoma 180, ICR/JCL mice, 17280 min
Protocol: Mouse transplantable tumour Sarcoma 180 cells (5×10^6 cells) were transplanted subcutaneously into male ICR/JCL mice (weighing 27-30 g) in the back. The test compounds were dissolved or suspended in a 0.5 weight % aqueous solution of CMC containing Tween 80 at the concentration of 0.1 weight % to afford test preparations. Using 7 animals per group, the test preparations were orally administered to each mouse at the dose of 0.1 ml/10 g mouse body weight once a day for consecutive 9 days from the following day of the day when the tumours were transplanted.
On the twelfth day from the day of tumour-transplantation, the average weight of tumours for each of the test compounds at the respective doses was measured. The weight was compared with the average weight of the tumours of the control group, and the tumour proliferation-inhibitory rates of the test compounds based on that of the control group were estimated at the respective dose.

O=c1[nH]c(=O)n([C@H]2C[C@H](O)[C@@H](COP(=O)(Sc3ccccc3)Sc3ccccc3)O2)cc1F [Ex. 25, 2'-deoxy-5-fluorouridine 5'-(S,S-diphenylphosphorodithioate)]
ED50 (dose at which tumour proliferation-inhibitory rate is over 50%): 9.8 mg/kg
